B1: MAdCAM Antibody Table 1 Clone 38 (scFv)
scFv: EVQLLESGGGLVQPGGSLRLSCAASGFTFGSYSMSWVRQAPGKGLEWVSAIGTGGGTYYADSVKGRFTISRDNSKNTLYLQMNSLRAEDTAVYYCAKGTPYYYYYGMDVWGQGTMVTVSSGGGGSGGGGSGGGGSGGGGSDIQMTQSPSSLSASVGDRVTITCRASQPLSNWLAWYQQKPGKAPKLLIYAASSLQSGVPSRFSGSGSGTDFTLTISSLQPEDFATYYCQQAISFPLTFGGGTKVEIK
B2: MAdCAM Antibody Table 1 Clone 27 (scFv)
scFv: QVQLVQSGAEVKKPGASVKVSCKASGYTFTGYYIHWVRQAPGQGLEWMGWMNPNSGNTGYAQKFQGRVTMTRDTSTSTVYMELSSLRSEDTAVYYCARDPGFLGYCSGGSCYDGWFDPWGQGTLVTVSSGGGGSGGGGSGGGGSGGGGSDIQMTQSPSSLSASVGDRVTITCRASQSISSYLHWYQQKPGKAPKLLIYAASSLQSGVPSRFSGSGSGTDFTLTISSLQPEDFATYYCQQSYTAPYTFGQGTKLEIK
B3: MAdCAM Antibody Table 1 Clone 40 (scFv)
scFv: QVQLVQSGAEVKKPGASVKVSCKASGYTFTSYGISWVRQAPGQGLEWMGIINPRGGSTIFAQKFQGRVTMTRDTSTSTVYMELSSLRSEDTAVYYCARGTRSSGWYGWFDPWGQGTLVTVSSGGGGSGGGGSGGGGSGGGGSDIQMTQSPSSLSASVGDRVTITCRASQGIGNWLAWYQQKPGKAPKLLIYAASNLETGVPSRFSGSGSGTDFTLTISSLQPEDFATYYCQQIHSYPLTFGGGTKVEIK
B4: MAdCAM Antibody Table 1 Clone 21 (scFv)
scFv: EVQLLESGGGLVQPGGSLRLSCAASGFTFSNAWMSWVRQAPGKGLEWVSTIVGNGGATYYADSVKGRFTISRDNSKNTLYLQMNSLRAEDTAVYYCARDNPLRWQGMDVWGQGTLVTVSSGGGGSGGGGSGGGGSGGGGSDIQMTQSPSSLSASVGDRVTITCRASQDISNYLNWYQQKPGKAPKLLIYAASSLQSGVPSRFSGSGSGTDFTLTISSLQPEDFATYYCQQSYSIPPTFGPGTKVDIK
B5: MAdCAM Antibody Table 1 Clone 25 (scFv)
scFv: QVQLVQSGAEVKKPGASVKVSCKASGYTLTTWYMYWVRQAPGQGLEWMGWINPNRGATNYAQKFQGRVTMTRDTSTSTVYMELSSLRSEDTAVYYCAKGDLWGAMDVWGQGTLVTVSSGGGGSGGGGSGGGGSGGGGSDIQMTQSPSSLSASVGDRVTITCRASDNIGSWLAWYQQKPGKAPKLLIYAASSLQSGVPSRFSGSGSGTDFTLTISSLQPEDFATYYCQQGYSTPPTFGQGTKVEIK
B6: MAdCAM Antibody Table 1 Clone 30 (scFv)
scFv: B5 scFv
B7: MAdCAM Antibody Table 1 Clone 26 (scFv)
scFv: B5 scFv with L113T
B8: MAdCAM Antibody Table 1 Clone 17 (scFv)
scFv: EVQLLESGGGLVQPGGSLRLSCAASGFTFSDSAMHWVRQAPGKGLEWVSAISGSGSTIYYADSVKGRFTISRDNSKNTLYLQMNSLRAEDTAVYYCVSDIAVAGHWYFDLWGRGTLVTVSSGGGGSGGGGSGGGGSGGGGSDIQMTQSPSSLSASVGDRVTITCRASQSISTFLNWYQQKPGKAPKLLIYAASRLEGGVPSRFSGSGSGTDFTLTISSLQPEDFATYYCQQANSFPLTFGPGTKVDIK
B9: MAdCAM Antibody Table 1 Clone 31 (scFv)
scFv: QVQLVQSGAEVKKPGASVKVSCKASGYTFTSYYMHWVRQAPGQGLEWMGIINPSGGSTSYAQKFQGRVTMTRDTSTSTVYMELSSLRSEDTAVYYCARDTGYSYGRYYYYGMDVWGQGTLVTVSSGGGGSGGGGSGGGGSGGGGSDIQMTQSPSSLSASVGDRVTITCRASQSIGRWLAWYQQKPGKAPKLLIYDASNLQSGVPSRFSGSGSGTDFTLTISSLQPEDFATYYCQQSYSIPITFGQGTKVEIK
B10: MAdCAM Antibody Table 1 Clone 36 (scFv)
scFv: B9 scFv with S31G, Y32H, L120T, Q245G
B11: MAdCAM Antibody Table 1 Clone 29 (scFv)
scFv: QVQLVQSGAEVKKPGASVKVSCKASGYTFTSYYMHWVRQAPGQGLEWMAWMNPNSGNTGYAQKFQGRVTMTRDTSTSTVYMELSSLRSEDTAVYYCARDYDFWSGSLGYWGQGTLVTVSSGGGGSGGGGSGGGGSGGGGSDIQMTQSPSSLSASVGDRVTITCRASQGISNYLAWYQQKPGKAPKLLIYAASSLQSGVPSRFSGSGSGTDFTLTISSLQPEDFATYYCQQSYSTPWTFGQGTKVEIK
B12: MAdCAM Antibody Table 1 Clone 39 (scFv)
scFv: QVQLVQSGAEVKKPGASVKVSCKASGYTFTSYYMHWVRQAPGQGLEWMGWMNPNSGNTGYAQKFQGRVTMTRDTSTSTVYMELSSLRSEDTAVYYCARDLGYYDSSGYFGAFDIWGQGTTVTVSSGGGGSGGGGSGGGGSGGGGSDIQMTQSPSSLSASVGDRVTITCQSSEDISSSLNWYQQKPGKAPKLLIYAASSLQIGVPSRFSGSGSGTDFTLTISSLQPEDFATYYCQQTYSTPYTFGQGTKVEIK
B13: MAdCAM Antibody Table 1 Clone 33 (scFv)
scFv: QVQLVQSGAEVKKPGASVKVSCKASGYTFTSYGISWVRQAPGQGLEWMGWMHPKSGDTGLTQKFQGRVTMTRDTSTSTVYMELSSLRSEDTAVYYCARDTPYYYYGMDVWGQGTTVTVSSGGGGSGGGGSGGGGSGGGGSDIQMTQSPSSLSASVGDRVTITCRASQSISSWLAWYQQKPGKAPKLLIYAASSLQSGVPSRFSGSGSGTDFTLTISSLQPEDFATYYCQQSYSVPITFGQGTKVEIK
B14: MAdCAM Antibody Table 1 Clone 16 (scFv)
scFv: EVQLLESGGGLVQPGGSLRLSCAASGFTFEDYAMHWVRQAPGKGLEWVSYLNSDGGSTSYADSVKGRFTISRDNSKNTLYLQMNSLRAEDTAVYYCAKDYCTNGVCAFDYWGQGTLVTVSSGGGGSGGGGSGGGGSGGGGSDIQMTQSPSSLSASVGDRVTITCRASQSISTYLNWYQQKPGKAPKLLIYDASNLETGVPSRFSGSGSGTDFTLTISSLQPEDFATYYCQQSYTIPITFGQGTRLEIK
B15: MAdCAM Antibody Table 1 Clone 14 (scFv)
scFv: QVQLVQSGAEVKKPGSSVKVSCKASGYTFTDYHIHWVRQAPGQGLEWMGGIVPRSGSTTYAQKFQGRVTITADESTSTAYMELSSLRSEDTAVYYCAKDESSGWYYFDYWGQGTLVTVSSGGGGSGGGGSGGGGSGGGGSDIVMTQSPLSLPVTPGEPASISCRSSQSLLHSNGYNYLDWYLQKPGQSPQLLIYSAYNRASGVPDRFSGSGSGTDFTLKISRVEAEDVGVYYCMQALQTPLTFGQGTKVEIK
B16: MAdCAM Antibody Table 1 Clone 12 (scFv)
scFv: QVQLVQSGAEVKKPGASVKVSCKASGYTFTGYYMHWVRQAPGQGLEWMGWIGPNSGDTNYAQKFQGRVTMTRDTSTSTVYMELSSLRSEDTAVYYCARDLDHNWYFDLWGRGTLVTVSSGGGGSGGGGSGGGGSGGGGSDIVMTQSPLSLPVTPGEPASISCRSSQSLLHSNGYNYLDWYLQKPGQSPQLLIYSSSNRAPGVPDRFSGSGSGTDFTLKISRVEAEDVGVYYCMQALHIPLTFGGGTKVEIK
B17: MAdCAM Antibody Table 1 Clone 35 (scFv)
scFv: EVQLLESGGGLVQPGGSLRLSCAASGFSFSSYTMNWVRQAPGKGLEWVSFITSSSRTIYYADSVKGRFTISRDNSKNTLYLQMNSLRAEDTAVYYCARDRRGDYGDSWYFDLWGRGTLVTVSSGGGGSGGGGSGGGGSGGGGSEIVMTQSPATLSVSPGERATLSCRASQSVRNYLAWYQQKPGQAPRLLIYGASTRATGIPARFSGSGSGTEFTLTISSLQSEDFAVYYCQQYGSSPLTFGGGTKVEIK
B18: MAdCAM Antibody Table 1 Clone 15 (scFv)
scFv: QVQLVQSGAEVKKPGSSVKVSCKASGYTFTNYYMHWVRQAPGQGLEWMGGIIPIVDRVKYAQKFQGRVTITADESTSTAYMELSSLRSEDTAVYYCAKGRYTVNYYYGMDVWGQGTTVTVSSGGGGSGGGGSGGGGSGGGGSDIQMTQSPSSLSASVGDRVTITCQANQDISNYLNWYQQKPGKAPKLLIYRASKLEAGVPSRFSGSGSGTDFTLTISSLQPEDFATYYCQQSSEIPYSFGQGTKLEIK
B19: MAdCAM Antibody Table 1 Clone 43 (scFv)
scFv: EVQLLESGGGLVQPGGSLRLSCAASGFTFDDFAMHWVRQAPGKGLEWVSGISGNGDSRYYADSVKGRFTISRDNSKNTLYLQMNSLRAEDTAVYYCARDASYGGNYGMDVWGQGTTVTVSSGGGGSGGGGSGGGGSGGGGSDIQMTQSPSSLSASVGDRVTITCQASQDIRNYLNWYQQKPGKAPKLLIYKASTLESGVPSRFSGSGSGTDFTLTISSLQPEDFATYYCQQANSFPLTFGPGTKVDIK
B20: MAdCAM Antibody Table 1 Clone 42 (scFv)
scFv: QVQLVQSGAEVKKPGSSVKVSCKASGGTLSRYGVSWVRQAPGQGLEWMGGIIPIFGTTNYAQKFQGRVTITADESTSTAYMELSSLRSEDTAVYYCARDRVYYDSSGYPTWYFDLWGRGTLVTVSSGGGGSGGGGSGGGGSGGGGSEIVMTQSPATLSVSPGERATLSCRASQSVSSSYLAWYQQKPGQAPRLLIYGASTRATGIPARFSGSGSGTEFTLTISSLQSEDFAVYYCQQYGSSPITFGQGTKVEIK
B21: MAdCAM Antibody Table 1 Clone 13 (scFv)
scFv: EVQLLESGGGLVQPGGSLRLSCAASGFTFDDYAMHWVRQAPGKGLEWVSYIDASGTTIYYADSVKGRFTISRDNSKNTLYLQMNSLRAEDTAVYYCAKDQAAAGYWYFDLWGRGTLVTVSSGGGGSGGGGSGGGGSGGGGSDIQMTQSPSSLSASVGDRVTITCQASQDISNYLNWYQQKPGKAPKLLIYKASTLESGVPSRFSGSGSGTDFTLTISSLQPEDFATYYCQQSYSTPITFGQGTRLEIK

In patent US20210206856A1 one finds binding data, which are given here for 21 molecules.

Positions count from the first letter of the chain named. No constants are given. Whether binding was seen depends on the method and setting. Binding can be weak; no strength is given.

The test deals with cyno MAdCAM protein (cyno). Nature of the test: ELISA.
On to B1, for which the binding entry is listed as “binds”.
In the case of B2 it was “binds”; in that of B3, “binds”.
As for B4, the entry is “binds”; as for B5, “binds”; as for B6, “binds”.
For the molecule B7, the binding entry is recorded as “binds”.
Consider B8, for which the binding entry is listed as “binds”.
As for B9, the entry is “binds”; as for B10, “binds”.
As for B11, the entry is “binds”.
As for B12, the entry is “binds”.
With B13, the binding entry is “binds”.
In the case of B14 it was “binds”; in that of B15, “binds”; in that of B16, “binds”.
Consider B17, for which the binding result was “binds”.
In the case of B18 it was “binds”; in that of B19, “binds”.
With B20, the binding result is “binds”.
B21: the binding entry is “binds”.
